In patent publication US20240165170A1, “USE OF LACTIC ACID BACTERIUM SET FOR PREVENTING OR TREATING NSAID-INDUCED GASTRIC ULCER” (GRAPE KING BIO LTD., priority 2022, published 2024):
At least one compound was matched to its structure with a doubt left.

Test system: ICR male mice
Experiment: aspirin-induced gastric ulcer test in ICR mice (ulcer area, ulcer index, cure rate, mucosal ulcer pathology)
Format: in vivo
Settings: stomach histopathology
Method: A total of 24 ICR male mice purchased from BioLASCO (Lesco Biotechnology) were used as the experimental animals, each about 25 grams. The mice were kept in a general mouse cage, the room temperature was maintained at 22±3° C., the humidity was 55±15%, and the light and darkness were regularly 12 hours (12 hr light-dark cycle). Feed and sterile reverse osmosis water was allowed to be eaten by mice freely. Newly imported animals need to be observed for 3-5 days to ensure that there is no abnormality before testing. Before the experiment, the ICR mice were randomly grouped and caged, and each ICR mouse was marked with an ear number for identification and recording.
24 mice were divided into a blank control group, a negative control group, a positive control group and a lactic acid bacteria test group, and there were 6 mice in each group. The mice were administered once a day for 39 consecutive days. The blank control group and the negative control group were given drinking water, the positive control group was given 20 mg/kg Omeprazole, and the lactic acid bacteria test group was given GKD7 and GKA4 freeze-dried powder, each 10.2 mg/kg/day. […]
The body weight of the mice was recorded every week, and after 39 consecutive days of administration, the mice were sacrificed with a high dose of Sutai 50 on the 40th day. […]

Question: For `COc1ccc2[nH]c([S+]([O-])Cc3ncc(C)c(OC)c3C)nc2c1` (stereo not shown) [Omeprazole], which “degree of gastric damage / mucosal ulcer score compared with negative control group” value is on record?
Answer: The value was “effectively reduce the degree of gastric damage”.
